Assay results taken from PubChem BioAssay AID504444 (National Center for Advancing Translational Sciences (NCATS), 2011).
Out of some 360,000 compounds screened, about 7,500 (2.1%) were called active. The inconclusive results got no clear call from the source; some entries with a clear call stand among them for comparison. The call rests on the fitted dose curve; in most records, active means well fitted inhibition curve with a large enough effect; inconclusive means small, poorly fitted or top-dose-only effect, or effect the other way; inactive means flat fitted curve, though single readings scatter. Potencies beside an inconclusive call are fits to weak or partial responses and may not hold up.

experiment: Nrf2 qHTS screen for inhibitors; settings: A549 ARE-Fluc reporter, luciferase luminescence, 18-24 h; activity change, negative = inhibition: at 46 µM (top of the series); further: nearly all actives have a fitted effect of over 60% in size
Summary of the method: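 Nrf2 activity is the BugLite luminescence, read 15 min after reagent at room temperature, following CellTiter-Fluor cytotoxicity readout (30 min, 37C). Compound titrations were applied for 18-24 h to 5000 A549 ARE_Fluc cells/well in 5% FBS OPTI-MEM.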
On the % scale 0 is the no-effect control and ±100 the full control effect; potency means the concentration at half of the fitted maximal effect.

| SMILES | Potency | activity change, negative = inhibition |
| --- | --- | --- |
| COc1ccccc1CN(C)C(C)C(=O)Nc1cccc(C(C)=O)c1 (centres undefined) | inconclusive: 11.6 µM [falling, partial curve, poor fit] |  |
| Cc1ccc(O)c(NC(=O)CSc2n[nH]c(-c3ccccc3)n2)c1 |  | inactive: -11.2% |
| Cc1nnc(NC(=O)c2sc3ccccc3c2Cl)s1 | inconclusive: 13 µM [falling, partial curve, poor fit] |  |
| Cc1ccc(-n2c(C)cc(/C=N/NC(=O)c3ccncc3)c2C)cc1 | inconclusive: 3.66 µM [activator, full curve] |  |
| COc1cc(C(=O)N2CCC(O)(c3ccccc3)CC2)cc(OC)c1OC | inconclusive: 25.9 µM [activator, single point] |  |
| CC(NC(=O)c1cc(COc2ccc3ncccc3c2)on1)c1ccc(F)cc1 (centres undefined) | inconclusive: 7.31 µM [falling, partial curve, poor fit] |  |
| CC(C)(C)CC(C)(C)c1ccc(O)c(CN2CCN(CCC#N)CC2)c1 | inconclusive: 29.1 µM [falling, single point] |  |
| O=C1c2ccccc2C(=O)N1c1ccc(Cl)cc1 | inconclusive: 23.1 µM [activator, single point] |  |
| N#C/C(=C/c1ccccc1OCc1ccc(F)cc1)c1ccc(C(=O)O)cc1 | inconclusive: 2.59 µM [falling, full curve, poor fit] |  |
| Cc1cc(SCC(=O)NN)c2cc(Br)ccc2n1 | inconclusive: 23.1 µM [falling, partial curve, poor fit] |  |
| COc1ccc(NS(=O)(=O)c2ccc(-n3nnc4ccccc43)c([N+](=O)[O-])c2)cc1 | inconclusive: 29.1 µM [falling, single point] |  |
| COCCNC(=O)C/C(C)=N/NC(=O)C(=O)NC1CCCCC1 | inconclusive: 29.1 µM [activator, single point] |  |
| C=C(C)Cn1c(SCC(=O)c2ccc(OC)cc2)nc2sc3c(c2c1=O)CCCC3 | inconclusive: 7.31 µM [falling, partial curve] |  |
| Cc1cc(Br)ccc1NC(=O)C(Cc1ccccc1)NS(=O)(=O)c1ccc(Br)s1 (centres undefined) | inconclusive: 6.51 µM [falling, full curve] |  |
| C=C(C)CSc1cc(C)c(C#N)c2nc3ccccc3n12 | inconclusive: 25.9 µM [activator, partial curve, poor fit] |  |
| Cn1c(=O)c(C(=O)NNC(=O)c2ccc(Br)cc2)c(O)c2ccccc21 | inconclusive: 23.1 µM [falling, single point] |  |
| CCN(CC(=O)NC(c1ccccc1)c1ccccc1)Cc1nc2ccccc2c(=O)[nH]1 | inconclusive: 3.66 µM [activator, single point] |  |
| COc1cccc(N2CCN(c3ccc(S(=O)(=O)N4CCN(C)CC4)cc3[N+](=O)[O-])CC2)c1 | inconclusive: 16.4 µM [falling, single point] |  |
| CCC1CSC(=Nc2ccc(C)cc2)N1C(=O)CN1C(=O)NC2(CCCC2)C1=O (centres undefined) | inconclusive: 3.66 µM [activator, full curve, poor fit] |  |
| Cn1cc(Cl)c(C(=O)N/N=C/c2ccc(OS(=O)(=O)c3ccccc3)cc2)n1 | inconclusive: 16.4 µM [falling, partial curve, poor fit] |  |
| Fc1ccc(C2CC(c3cccs3)=NN2c2ccccc2)cc1 (centres undefined) | inconclusive: 25.9 µM [falling, single point] |  |
| COc1ccc(COC(=O)Oc2ccc(CNC(C)=O)cc2OC)c([N+](=O)[O-])c1 | inconclusive: 32.6 µM [activator, single point] |  |

| SMILES | Potency | activity change, negative = inhibition |
| --- | --- | --- |
| COc1ccc(/C=N/NC(=O)c2cc(C)oc2C)cc1OCc1ccccc1 | inconclusive: 16.4 µM [falling, single point] |  |
| Cc1nn(CCOc2ccccc2)c(=O)n1-c1c(F)cccc1F | inconclusive: 29.1 µM [activator, single point] |  |
| COc1ccc(NC(=O)c2ccc3ccccc3c2)cc1NS(=O)(=O)c1ccc(F)cc1 | inconclusive: 29.1 µM [falling, single point] |  |
| O=C1C2C3C=CC(C4CC34)C2C(=O)N1/N=C/c1ccc([N+](=O)[O-])o1 (centres undefined) | inconclusive: 29.1 µM [activator, single point] |  |
| CN(N=Nc1nc[nH]c1C(=O)NN)C1CCCCC1 | inconclusive: 3.66 µM [activator, full curve, poor fit] |  |
| CCOc1ccccc1NC(=O)CSc1nc2c(c(=O)[nH]1)CCC2 | inconclusive: 23.1 µM [falling, single point] |  |
| O=C(/C=C/c1ccco1)Nc1ccc(Oc2ccc(Cl)cc2)cc1 | inconclusive: 16.4 µM [falling, single point] |  |
| CC(C)(C)n1cnc2cc(NC(=O)c3ccc(Cl)cc3)ccc21 | inconclusive: 2.31 µM [activator, partial curve] |  |
| O=C(O)c1cc(Nc2cc(Cl)c3nonc3c2[N+](=O)[O-])ccc1O |  | inactive: -11.2% |
| N#Cc1c(N)nc2c(c1-c1cccnc1)CCCCC2 | inconclusive: 0.651 µM [falling, partial curve, poor fit] |  |
| CC1(C)CNc2cc([N+](=O)[O-])ccc2S1 | inconclusive: 18.4 µM [activator, single point] |  |
| Cc1ccc(S(=O)(=O)Nc2cccc3c2O[C@H](CN(C)C(=O)Nc2cccc4ccccc24)[C@H](C)CN([C@H](C)CO)C3=O)cc1 | inconclusive: 20.6 µM [falling, single point] |  |
| CCOC(=O)N1CCN(C(=O)C2CCN(C(=O)c3ccccc3C)CC2)CC1 | inconclusive: 32.6 µM [falling, single point] |  |
| CCn1c(/C=C/c2ccc(O)cc2)nc2ccccc2c1=O | inconclusive: 18.4 µM [falling, partial curve, poor fit] |  |
| O=C(c1cn(Cc2ccccc2)nc1-c1ccccc1)N1CCN(c2ccccn2)CC1 | inconclusive: 14.6 µM [activator, single point] |  |
| COc1ccc(N2C(=O)S[C@@H]3CS(=O)(=O)C[C@@H]32)cc1 |  | inactive: 4.42% |
| CCCN(CCC)C(=O)CSc1nc2ccccc2c(=O)n1CC1COc2ccccc2O1 (centres undefined) |  | inactive: 5.93% |
| C#CCn1c(COc2ccccc2C)nc2ccccc21 | inconclusive: 5.8 µM [activator, full curve] |  |
| O=S(=O)(c1ccc(Br)cc1)c1nc(-c2ccccc2)oc1NCc1cccnc1 | active: 20.6 µM |  |
| Cc1cccc(OCCSCc2nc3ccccc3[nH]2)c1 | inconclusive: 20.6 µM [falling, partial curve, poor fit] |  |
| Cc1nn2c(=O)cc(CSCC(=O)Nc3ccccc3Cl)nc2s1 | inconclusive: 29.1 µM [activator, single point] |  |
| CC(=O)c1cc(C#N)c(SCc2ccccc2)nc1C | inconclusive: 10.3 µM [activator, partial curve, poor fit] |  |

Some values from the results shown:
Potency with CCOc1ccccc1NC(=O)CSc1nc2c(c(=O)[nH]1)CCC2 reads inconclusive: 23.1 µM [falling, single point]
Potency with COc1ccccc1CN(C)C(C)C(=O)Nc1cccc(C(C)=O)c1 (centres undefined) reads inconclusive: 11.6 µM [falling, partial curve, poor fit]
Potency with CC(C)(C)n1cnc2cc(NC(=O)c3ccc(Cl)cc3)ccc21 reads inconclusive: 2.31 µM [activator, partial curve]

(next part)

| SMILES | Potency | activity change, negative = inhibition |
| --- | --- | --- |
| O=C(N/N=C/c1ccc2c(c1)OCO2)c1ccc(NS(=O)(=O)c2cccs2)cc1 |  | inactive: 6.72% |
| Nc1nc(-c2ccccc2)cn1/N=C/c1ccccc1 | inconclusive: 20.6 µM [activator, single point] |  |
| CCc1cccc(NC(=O)C(CC(C)C)NS(=O)(=O)c2ccc3c(c2)oc(=O)n3C)c1 (centres undefined) | inconclusive: 14.6 µM [falling, partial curve, poor fit] |  |
| CCOc1cc(NS(=O)(=O)c2ccccc2)c(OCC)cc1NC(=O)c1ccco1 | inconclusive: 14.6 µM [falling, partial curve] |  |
| CCC(=O)OCCn1c(Br)nc2c1c(=O)[nH]c(=O)n2C | inconclusive: 2.31 µM [falling, partial curve, poor fit] |  |
| COc1ccc(N2CCN(C(=O)COC(=O)c3cccc(S(=O)(=O)Nc4cccc(C)c4)c3)CC2)cc1 | active: 25.9 µM |  |
| CC12CCC(=O)C=C1CCC1C2C(O)CC2(C)C1CCC2(O)C(=O)COC(=O)COCC(=O)O (centres undefined) | active: 0.291 µM |  |
| COc1ccc(CNC(=O)C2CCN(C(=O)N(C)C)CC2)c(OC)c1 |  | inactive: -4.33% |
| Cc1ccccc1C(=O)Nc1ccc(N2CCCC2)cc1 | inconclusive: 5.8 µM [activator, full curve] |  |
| CCc1ccc(NC(=O)C2CCCN2S(=O)(=O)c2ccc3c(c2)C(C)(C)C(=O)N3C)cc1 (centres undefined) | inconclusive: 14.6 µM [falling, single point] |  |
| CCCCNC(=O)C1CCC(CNc2nc(=S)[nH]c3ccccc23)CC1 (centres undefined) |  | inactive: -11.7% |
| O=C(COC(=O)C12CC3CC(CC(Cl)(C3)C1)C2)NCc1ccco1 |  | inactive: 2.34% |
| CCc1noc(-c2ccc(N3CCCCC3)c([N+](=O)[O-])c2)n1 |  | inactive: 16% |
| CCOc1ccc(CN(C)C(=O)CCNC(=O)c2ccco2)cc1 |  | inactive: 9.75% |
| CC(C)CN(CC(C)C)S(=O)(=O)N1CCC(C(=O)NCc2ccc(F)cc2)CC1 |  | inactive: -2.16% |
| CC(C)(C)OC(=O)CNC(=O)c1[nH]cnc1C(=O)Nc1ccc(Cl)cc1 | inconclusive: 16.4 µM [falling, partial curve, poor fit] |  |
| Cc1ccc(-n2cnn(-c3ccc([N+](=O)[O-])cc3[N+](=O)[O-])c2=O)cc1 | inconclusive: 29.1 µM [activator, single point] |  |
| CC(=O)C1=C(C)NC(=O)NC1c1ccc(Cl)cc1 (centres undefined) | inconclusive: 20.6 µM [falling, partial curve, poor fit] |  |
| CCCSc1nc2c(cnn2-c2ccc(C)cc2)c(=O)[nH]1 | active: 18.4 µM |  |
| COc1ccc(S(=O)(=O)CCC(=O)N2CCN(c3ccc([N+](=O)[O-])cc3)CC2)cc1 | inconclusive: 20.6 µM [falling, single point] |  |
